In article PMC5003356:

Columns and labels:
[1] = target: NCL (RBD 1-4) NLuc fusion (UniProt P09405); experiment: competition BRET; conditions: 3-10-3 cEt gap-mer; BRET: 1X binding buffer (0.1 M potassium acetate, 20 mM Tris pH 7.5, 1 mM EDTA, 0.01% NP-40), room temperature, 15 min; protein in a lysate after overexpression; protein details: NLuc (N or C); synthetic backbone
[2] = target: P54nrb NLuc fusion (Homo sapiens) (UniProt Q15233); experiment: competition BRET; conditions: 3-10-3 cEt gap-mer; BRET: 1X binding buffer (0.1 M potassium acetate, 20 mM Tris pH 7.5, 1 mM EDTA, 0.01% NP-40), room temperature, 15 min; protein in a lysate after overexpression; protein details: NLuc (N or C); synthetic backbone
RNase H1 NLuc fusion [3] = target: T1, RNase H1 NLuc fusion (UniProt O60930); experiment: competition BRET; conditions: 3-10-3 cEt gap-mer; BRET: 1X binding buffer (0.1 M potassium acetate, 20 mM Tris pH 7.5, 1 mM EDTA, 0.01% NP-40), room temperature, 15 min; protein in a lysate after overexpression; protein details: NLuc (N or C); synthetic backbone
T1 sequence (looked up, limits assumed): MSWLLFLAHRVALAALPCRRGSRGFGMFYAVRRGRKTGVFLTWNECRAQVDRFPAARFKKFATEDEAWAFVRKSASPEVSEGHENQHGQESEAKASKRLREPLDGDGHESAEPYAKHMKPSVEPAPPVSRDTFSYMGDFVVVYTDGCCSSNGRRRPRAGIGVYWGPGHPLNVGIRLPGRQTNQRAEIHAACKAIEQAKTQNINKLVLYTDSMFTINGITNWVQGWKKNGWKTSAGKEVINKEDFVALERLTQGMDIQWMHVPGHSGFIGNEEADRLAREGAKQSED

LRPPRC-NLuc [4] = target: LRPPRC-NLuc (UniProt P42704); experiment: competition BRET; conditions: 3-10-3 cEt gap-mer; BRET: 1X binding buffer (0.1 M potassium acetate, 20 mM Tris pH 7.5, 1 mM EDTA, 0.01% NP-40), room temperature, 15 min; protein in a lysate after overexpression; protein details: C-terminal NLuc; synthetic backbone
Staufen1 NLuc fusion = target: T2, Staufen1 NLuc fusion (UniProt O95793); experiment: BRET; conditions: BRET: 1X binding buffer (0.1 M potassium acetate, 20 mM Tris pH 7.5, 1 mM EDTA, 0.01% NP-40), room temperature, 15 min
T2 sequence (looked up, limits assumed): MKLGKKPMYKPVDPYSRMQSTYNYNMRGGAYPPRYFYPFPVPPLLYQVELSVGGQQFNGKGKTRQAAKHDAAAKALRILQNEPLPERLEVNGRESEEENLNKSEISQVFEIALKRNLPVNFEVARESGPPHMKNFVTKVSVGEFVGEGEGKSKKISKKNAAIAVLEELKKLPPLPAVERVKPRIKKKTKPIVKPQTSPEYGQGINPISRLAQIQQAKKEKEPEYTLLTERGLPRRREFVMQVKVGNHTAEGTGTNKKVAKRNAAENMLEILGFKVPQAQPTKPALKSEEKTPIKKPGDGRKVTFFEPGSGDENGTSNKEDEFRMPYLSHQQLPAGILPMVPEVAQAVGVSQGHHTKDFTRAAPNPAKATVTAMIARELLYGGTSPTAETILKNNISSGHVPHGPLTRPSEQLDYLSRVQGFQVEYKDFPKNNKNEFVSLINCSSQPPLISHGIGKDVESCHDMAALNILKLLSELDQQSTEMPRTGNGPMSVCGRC

NLuc-cJun = NLuc-cJun (UniProt P05627); experiment: BRET; conditions: digitonin-permeabilized HeLa, 'virtually no binding'; BRET: 1X binding buffer (0.1 M potassium acetate, 20 mM Tris pH 7.5, 1 mM EDTA, 0.01% NP-40), room temperature, 15 min; protein in a lysate after overexpression; protein details: N-terminal NLuc; label: 3' Alexa Fluor 594 on strand 1
HSP90 (mid)-NLuc = HSP90 (mid)-NLuc (UniProt P07900); experiment: BRET; conditions: PS; 5-10-5 2'-F gap-mer; BRET: 1X binding buffer (0.1 M potassium acetate, 20 mM Tris pH 7.5, 1 mM EDTA, 0.01% NP-40), room temperature, 15 min; protein in a lysate after overexpression; protein details: C-terminal NLuc; label: 3' Alexa Fluor 594; synthetic backbone
NLuc-TCP1-beta = target: T3, NLuc-TCP1-beta (UniProt P80314); experiment: BRET; conditions: PS; 5-10-5 2'-F gap-mer; BRET: 1X binding buffer (0.1 M potassium acetate, 20 mM Tris pH 7.5, 1 mM EDTA, 0.01% NP-40), room temperature, 15 min; protein in a lysate after overexpression; protein details: N-terminal NLuc; label: 3' Alexa Fluor 594; synthetic backbone
T3 sequence (looked up, limits assumed): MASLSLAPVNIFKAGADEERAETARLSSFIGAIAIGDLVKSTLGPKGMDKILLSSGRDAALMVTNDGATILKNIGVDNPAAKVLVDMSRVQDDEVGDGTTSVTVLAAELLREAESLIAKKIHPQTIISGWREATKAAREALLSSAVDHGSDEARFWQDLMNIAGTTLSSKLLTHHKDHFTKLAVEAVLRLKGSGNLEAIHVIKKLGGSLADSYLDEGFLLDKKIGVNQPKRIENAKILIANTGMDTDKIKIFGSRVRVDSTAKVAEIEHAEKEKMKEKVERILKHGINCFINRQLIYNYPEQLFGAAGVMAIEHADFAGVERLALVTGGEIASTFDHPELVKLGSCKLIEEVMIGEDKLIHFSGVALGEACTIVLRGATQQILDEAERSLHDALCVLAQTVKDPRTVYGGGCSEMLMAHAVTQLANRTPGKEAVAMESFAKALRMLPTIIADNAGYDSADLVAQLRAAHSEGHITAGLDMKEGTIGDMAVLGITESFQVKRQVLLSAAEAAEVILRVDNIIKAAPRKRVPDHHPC

[5] = target: NCL (RBD 1-4) NLuc fusion (UniProt P09405); experiment: BRET; conditions: PS; 5-10-5 2'-F gap-mer; BRET: 1X binding buffer (0.1 M potassium acetate, 20 mM Tris pH 7.5, 1 mM EDTA, 0.01% NP-40), room temperature, 15 min; protein in a lysate after overexpression; protein details: NLuc (N or C); label: 3' Alexa Fluor 594; synthetic backbone
SFPQ-NLuc = SFPQ-NLuc (UniProt P23246); experiment: BRET; conditions: PS; 5-10-5 2'-F gap-mer; BRET: 1X binding buffer (0.1 M potassium acetate, 20 mM Tris pH 7.5, 1 mM EDTA, 0.01% NP-40), room temperature, 15 min; protein in a lysate after overexpression; protein details: C-terminal NLuc; label: 3' Alexa Fluor 594; synthetic backbone
Ku70-NLuc = Ku70-NLuc (UniProt P12956); experiment: BRET; conditions: PS; 5-10-5 2'-F gap-mer; BRET: 1X binding buffer (0.1 M potassium acetate, 20 mM Tris pH 7.5, 1 mM EDTA, 0.01% NP-40), room temperature, 15 min; protein in a lysate after overexpression; protein details: C-terminal NLuc; label: 3' Alexa Fluor 594; synthetic backbone
NMP1 (NPM1) NLuc fusion = NMP1 (NPM1) NLuc fusion (UniProt P06748); experiment: BRET; conditions: PS; 5-10-5 2'-F gap-mer; BRET: 1X binding buffer (0.1 M potassium acetate, 20 mM Tris pH 7.5, 1 mM EDTA, 0.01% NP-40), room temperature, 15 min; protein in a lysate after overexpression; protein details: NLuc (N or C); label: 3' Alexa Fluor 594; synthetic backbone
NLuc-PC4 = NLuc-PC4 (UniProt P53999); experiment: BRET; conditions: PS; 5-10-5 2'-F gap-mer; BRET: 1X binding buffer (0.1 M potassium acetate, 20 mM Tris pH 7.5, 1 mM EDTA, 0.01% NP-40), room temperature, 15 min; protein in a lysate after overexpression; protein details: N-terminal NLuc; label: 3' Alexa Fluor 594; synthetic backbone
ANXA2-NLuc = ANXA2-NLuc (UniProt P07356); experiment: BRET; conditions: PS; 5-10-5 2'-F gap-mer; BRET: 1X binding buffer (0.1 M potassium acetate, 20 mM Tris pH 7.5, 1 mM EDTA, 0.01% NP-40), room temperature, 15 min; protein in a lysate after overexpression; protein details: C-terminal NLuc; label: 3' Alexa Fluor 594; synthetic backbone
NLuc-RPL11 = NLuc-RPL11 (UniProt P62913); experiment: BRET; conditions: PS; 5-10-5 2'-F gap-mer; BRET: 1X binding buffer (0.1 M potassium acetate, 20 mM Tris pH 7.5, 1 mM EDTA, 0.01% NP-40), room temperature, 15 min; protein in a lysate after overexpression; protein details: N-terminal NLuc; label: 3' Alexa Fluor 594; synthetic backbone
FUS-NLuc = target: T4, FUS-NLuc (UniProt P56959); experiment: BRET; conditions: PS; 5-10-5 2'-F gap-mer; BRET: 1X binding buffer (0.1 M potassium acetate, 20 mM Tris pH 7.5, 1 mM EDTA, 0.01% NP-40), room temperature, 15 min; protein in a lysate after overexpression; protein details: C-terminal NLuc; label: 3' Alexa Fluor 594; synthetic backbone
T4 sequence (looked up, limits assumed): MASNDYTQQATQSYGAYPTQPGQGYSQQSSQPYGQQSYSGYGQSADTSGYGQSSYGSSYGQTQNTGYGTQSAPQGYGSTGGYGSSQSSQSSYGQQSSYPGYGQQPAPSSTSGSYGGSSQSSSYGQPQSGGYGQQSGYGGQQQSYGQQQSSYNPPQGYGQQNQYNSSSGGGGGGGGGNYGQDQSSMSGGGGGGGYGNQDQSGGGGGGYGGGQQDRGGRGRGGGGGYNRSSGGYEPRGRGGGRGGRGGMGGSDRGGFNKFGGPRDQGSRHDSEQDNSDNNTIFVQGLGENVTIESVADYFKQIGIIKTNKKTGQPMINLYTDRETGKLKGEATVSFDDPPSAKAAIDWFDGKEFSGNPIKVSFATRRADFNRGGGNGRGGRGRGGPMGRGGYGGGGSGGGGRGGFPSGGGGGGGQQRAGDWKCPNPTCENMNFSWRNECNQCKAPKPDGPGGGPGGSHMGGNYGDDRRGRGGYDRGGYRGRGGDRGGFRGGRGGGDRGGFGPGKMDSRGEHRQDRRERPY

[6] = target: P54nrb NLuc fusion (Homo sapiens) (UniProt Q15233); experiment: BRET; conditions: PS; 5-10-5 2'-F gap-mer; BRET: 1X binding buffer (0.1 M potassium acetate, 20 mM Tris pH 7.5, 1 mM EDTA, 0.01% NP-40), room temperature, 15 min; protein in a lysate after overexpression; protein details: NLuc (N or C); label: 3' Alexa Fluor 594; synthetic backbone
RNase H1 NLuc fusion [7] = target: T1, RNase H1 NLuc fusion; experiment: BRET; conditions: PS; 5-10-5 2'-F gap-mer; BRET: 1X binding buffer (0.1 M potassium acetate, 20 mM Tris pH 7.5, 1 mM EDTA, 0.01% NP-40), room temperature, 15 min; protein in a lysate after overexpression; protein details: NLuc (N or C); label: 3' Alexa Fluor 594; synthetic backbone
La NLuc fusion = La NLuc fusion (UniProt P05455); experiment: BRET; conditions: PS; 5-10-5 2'-F gap-mer; BRET: 1X binding buffer (0.1 M potassium acetate, 20 mM Tris pH 7.5, 1 mM EDTA, 0.01% NP-40), room temperature, 15 min; protein in a lysate after overexpression; protein details: NLuc (N or C); label: 3' Alexa Fluor 594; synthetic backbone
LRPPRC-NLuc [8] = target: LRPPRC-NLuc (UniProt P42704); experiment: BRET; conditions: PS; 5-10-5 2'-F gap-mer; BRET: 1X binding buffer (0.1 M potassium acetate, 20 mM Tris pH 7.5, 1 mM EDTA, 0.01% NP-40), room temperature, 15 min; protein in a lysate after overexpression; protein details: C-terminal NLuc; label: 3' Alexa Fluor 594; synthetic backbone
NLuc-RPL5 = NLuc-RPL5 (UniProt P47962); experiment: BRET; conditions: PS; 5-10-5 2'-F gap-mer; BRET: 1X binding buffer (0.1 M potassium acetate, 20 mM Tris pH 7.5, 1 mM EDTA, 0.01% NP-40), room temperature, 15 min; protein in a lysate after overexpression; protein details: N-terminal NLuc; label: 3' Alexa Fluor 594; synthetic backbone

Sequence	Kd [1]	Kd [2]	Kd (RNase H1 NLuc fusion [3])	Kd (LRPPRC-NLuc [4])	other results
GTTAAGAAGGCTGTCC [661073]	13.4 nM	95.5 nM	149 nM	0.16 nM	
CCACTGCGCAGGCCAG [660935]	12.3 nM	74.8 nM	119 nM	1.44 nM	
CCAGCGGGTGGACTGT [660923]	7.37 nM	1.22 nM	7.11 nM	0.27 nM	
CUGCUAGCCUCUGGAUUUGA [STAU1 ssRNA]					binding result (Staufen1 NLuc fusion; range over ssRNA, ssDNA and RNA/DNA, protein in a lysate after overexpression, label: 3' Alexa Fluor 594): binds more weakly
ACCCTGCCACGATGTA [660992]	2.88 nM	15.2 nM	46.3 nM	0.01 nM	
TGAGAAGATCTCCCGG [661103]	2.25 nM	15.7 nM	25.4 nM	0.19 nM	
CGCTTGATGACTTGGCCGGAA (double strand) [AP1-M ds]					binding signal (fold lower affinity than ds AP1) (NLuc-cJun): 100
CTGCTAGCCTCTGGATTTGA [766638 2'-F gap-mer]					Kd (HSP90 (mid)-NLuc): 98 nM; Kd (NLuc-TCP1-beta): 189 nM; Kd [5]: 2 pM; Kd (SFPQ-NLuc): 0.72 nM; Kd (Ku70-NLuc): 3 nM; Kd (NMP1 (NPM1) NLuc fusion): > 1000 nM; Kd (NLuc-PC4): 0.21 nM; Kd (ANXA2-NLuc): > 1000 nM; Kd (NLuc-RPL11): 9.8 nM; Kd (FUS-NLuc): 0.12 nM; Kd [6]: 2.1 nM; Kd (RNase H1 NLuc fusion [7]): 2 nM; Kd (La NLuc fusion): 1.1 nM; Kd (LRPPRC-NLuc [8]): 0.19 nM; Kd (NLuc-RPL5): 0.6 nM
AACATGTCTGCCAGGG [660956]	2.35 nM	0.71 nM	10.5 nM	0.42 nM	
CUGCUAGCCUCUGGAUUUGA / UAUGGGGUCAAAUCCAGAGGCUAGCAGAAGGGAGUAACUA [STAU1 RNA/RNA]					Kd (Staufen1 NLuc fusion; protein in a lysate after …, label: 3' Alexa Fluor 594 on strand 1): 3 nM

Construct, isoform or probe ends are uncertain for at least one entry. Where cells or extracts were used, other partners may take part. For part of these data: Weaker means in comparison with the reference protein, sequence or condition of that experiment. For part of these data: Where a protein sequence is shown, tags need not be part of it. For part of these data: Whether high values mean tight binding is not given here for every scale.
